In patent publication US20250326838A1 one finds binding data, which are given here for four molecules.

For experiment [1], the target named is His-tagged cynomolgus monkey Siglec15 protein (cynomolgus monkey). The experiment can be described thus: ELISA, His-tagged cynomolgus monkey Siglec15 coated. On the technique in general: ELISA stands for enzyme-linked immunosorbent assay.
The target is the same in experiment [2]. The experiment can be described thus: ELISA, plate coated with His-tagged cynomolgus monkey Siglec15.

Substitutions are numbered along the chain they refer to. These are yes or no findings as the source states them, for the method shown. Some binding calls cover weakened binding; strength is not graded here.

B1: 1-7F4 monoclonal antibody (antibody, V domains shown)
VH: EVQLQQSGPELVKPGASVKMSCKASGYTFTTYVMHWVKQKPGQGLEWIGYINPYNDKTKYNEKFKGKATLTSDKSSSTAYMEVSRLTSEDSAVYYCGSGYDAMDYWGQGTSVTVSS
VL: DIQMTQSPASLSVSVGETVTITCRASENIYSHLAWYQQKQGKSPQLLIYSATNLADGVPSRFNGSGSGTQYSLKINSLQSEDFGSYYCQHFWGTPWTFGGGTKLEIK
As for B1, the binding entry in experiment [1] and in experiment [2] was “binds” throughout.

B2: 1-15D1 monoclonal antibody (antibody, V domains shown)
VH: B1 VH with K57N, V83L, R85S
VL: B1 VL with T5A, A25T, I48V
On to B2, for which the binding entry in experiment [1] and in experiment [2] was “binds” in each case.

B3: 1-10E5 monoclonal antibody (antibody, V domains shown)
VH: DVKLVESGGGLVKPGGSLKLSCVVSGLTFSRYTMSWVRQTPEKRLEWVATISSGGNSTYYPDSVKGRFTISRDDAKDTLYLQMSSLKSEDTAMYYCTNYGYFFDYWGQGTTLTVSS
VL: DIQMTQSPASLSASVGETVTITCRASENIYSFLAWYQQKQGKSPQLLVYNAKTLAEGVPSRFSGSGSGTQFSLKINSLQPEDFGSYYCQHHYDRPLTFGAGTKLELK
Regarding B3, the binding result in experiment [1] and in experiment [2] was “binds” throughout.

B4: 14A7 monoclonal antibody (antibody, V domains shown)
VH: DVQLQESGPGLVKPSQSLSLTCTVTGYSITSDFAWNWIRQFPGNKLEWMGYIRFSGSTTYKPTLKSRISITRDTSKNQFFLQLNSVTTEDSATYYCAREDYDGLFDYWGQGTTLTVTS
VL: DVLMTQTPLSLPVSLGDHASISCRSSQTILHSNGNTYLDWYLQKPGQSPKLLIYKVSNRFSGVPDRFSGSGSGTDFTLKISRVEAEDLGVYYCFQGSHVPYTFGGGTKLEIK
In the case of B4, the binding result in experiment [1] and in experiment [2] was “binds” each time.
